These are yes or no findings as the source states them, for the method shown. Some entries that bind do so weakly or less than the wild type.
Target: T1, Recombinant human HMGB1 (rHMGB1) (human), P09429
T1 chain: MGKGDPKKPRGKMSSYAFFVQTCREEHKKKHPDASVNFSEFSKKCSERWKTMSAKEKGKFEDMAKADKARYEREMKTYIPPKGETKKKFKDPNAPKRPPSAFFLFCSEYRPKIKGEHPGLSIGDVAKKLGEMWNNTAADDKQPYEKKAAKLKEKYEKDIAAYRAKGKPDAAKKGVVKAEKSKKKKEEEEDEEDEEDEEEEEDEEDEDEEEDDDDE
Test: Sulfo-SBED label transfer, immunoblot
Details: remark: other sources report otherwise

B1: Recombinant human HMGB1 (rHMGB1), P09429 1-215 (protein)
chain: T1 chain
binding: binds
